The supplement of paper PMC4635364
Structures can show the parent of a compound that is named as a salt. The list shows a part of the results. Single values are uncertain here, since repeats match poorly.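 ReNCell VM, a human fetal ventral-midbrain neural progenitor line, was differentiated without mitogens. Blinded raters scored images stained for doublecortin (early neurons) or tyrosine hydroxylase (dopaminergic neurons) against untreated wells (0 = no change). Scores were averaged across repeats and both raters, and compounds averaging 2 or more were selected as hits for retesting.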

Experiments:
ReNCell VM [1] = assay: neuronal differentiation score (DCX+ cell fraction vs untreated, manual image score) (score (-3 to 3)); higher = more neuronal differentiation; details: 2 uM, 2 weeks
ReNCell VM [2] = assay: dopaminergic neuron differentiation score (TH+ cell fraction vs untreated, manual image score) (score (0 to 3)); higher = more TH+ dopaminergic neuron differentiation; details: 2 uM, 4 weeks, BDNF 10 ng/ml + GDNF 10 ng/ml

COc1c(N2C[C@@H]3CCCN[C@@H]3C2)c(F)cc2c(=O)c(C(=O)O)cn(C3CC3)c12 [Moxifloxacin]
neuronal differentiation score (ReNCell VM [1]; library: Prestwick): inactive: 0 | dopaminergic neuron differentiation score (ReNCell VM [2]; library: Prestwick): inactive: 0

CC1(C)S[C@@H]2[C@H](NC(=O)[C@H](N)c3ccccc3)C(=O)N2[C@H]1C(=O)O
neuronal differentiation score (ReNCell VM [1]; library: Spectrum): inactive: 0 | dopaminergic neuron differentiation score (ReNCell VM [2]; library: Spectrum): inactive: 0

NCCNC(=O)c1ncsc1-c1cccc(F)c1 [Ro 41-1049 hydrochloride]
neuronal differentiation score (ReNCell VM [1]; library: LOPAC): inactive: 0 | dopaminergic neuron differentiation score (ReNCell VM [2]; library: LOPAC): inactive: 0

CC(=O)N[C@@H](CS)C(=O)O [Acetylcysteine]
neuronal differentiation score (ReNCell VM [1]; library: Prestwick): inactive: 0 | dopaminergic neuron differentiation score (ReNCell VM [2]; library: Prestwick): inactive: 0

O=C(O)C1(C(=O)O)CCC1.[NH2-].[NH2-].[Pt+2]
neuronal differentiation score (ReNCell VM [1]; library: Spectrum): inactive: 0 | dopaminergic neuron differentiation score (ReNCell VM [2]; library: Spectrum): inactive: 0

CC1(COc2ccc(CC3SC(=O)NC3=O)cc2)CCCCC1 (configuration not stated) [Ciglitazone]
neuronal differentiation score (ReNCell VM [1]; library: Tocriscreen): inactive: 0 | dopaminergic neuron differentiation score (ReNCell VM [2]; library: Tocriscreen): inactive: 0

N=C(CC(O)COc1ccccc1-c1ccccc1)N1CCCCC1 (configuration not stated)
neuronal differentiation score (ReNCell VM [1]; library: Tocriscreen): inactive: 0 | dopaminergic neuron differentiation score (ReNCell VM [2]; library: Tocriscreen): inactive: 0

COc1cc(C2Oc3cc([C@H]4Oc5cc(O)cc(O)c5C(=O)[C@@H]4O)ccc3OC2CO)ccc1O (some centres not stated) [silibinin]
neuronal differentiation score (ReNCell VM [1]; library: Natural): inactive: 0 | dopaminergic neuron differentiation score (ReNCell VM [2]; library: Natural): inactive: 0

CN1CCN2c3ncccc3Cc3ccccc3C2C1 (configuration not stated) [Mirtazapine]
neuronal differentiation score (ReNCell VM [1]; library: Prestwick): inactive: 0 | dopaminergic neuron differentiation score (ReNCell VM [2]; library: Prestwick): inactive: 0

CO[C@@]1(NC(=O)C(C(=O)O)c2ccc(O)cc2)C(=O)N2C(C(=O)O)=C(CSc3nnnn3C)CO[C@@H]21 (some centres not stated) [Moxalactam disodium salt]
neuronal differentiation score (ReNCell VM [1]; library: Prestwick): inactive: 0 | dopaminergic neuron differentiation score (ReNCell VM [2]; library: Prestwick): inactive: 0

COc1cc2c(cc1OC)C(=O)Cc1ccc3c(c1CN(C)CC2)OCO3 [Cryptopine]
neuronal differentiation score (ReNCell VM [1]; library: Phytochemical): inactive: 0 | dopaminergic neuron differentiation score (ReNCell VM [2]; library: Phytochemical): inactive: 0

O=[N+]([O-])c1cccc2cn[nH]c12
neuronal differentiation score (ReNCell VM [1]; library: Spectrum): inactive: 0 | dopaminergic neuron differentiation score (ReNCell VM [2]; library: Spectrum): inactive: 0

O=C(Cc1ccccc1)Nc1nc2ccc(Cl)cc2c2nc(-c3ccco3)nn12
neuronal differentiation score (ReNCell VM [1]; library: Tocriscreen): inactive: -1 | dopaminergic neuron differentiation score (ReNCell VM [2]; library: Tocriscreen): inactive: 0

CC(C)C(=O)Nc1ccc([N+](=O)[O-])c(C(F)(F)F)c1
neuronal differentiation score (ReNCell VM [1]; library: Spectrum): inactive: 1 | dopaminergic neuron differentiation score (ReNCell VM [2]; library: Spectrum): inactive: 0

CCN[C@@H]1C[C@H](N)[C@@H](O[C@H]2OC(CN)=CC[C@H]2N)[C@H](O)[C@H]1O[C@H]1OC[C@](C)(O)[C@H](NC)[C@H]1O
neuronal differentiation score (ReNCell VM [1]; library: Spectrum): inactive: 0 | dopaminergic neuron differentiation score (ReNCell VM [2]; library: Spectrum): inactive: 0

O=c1[nH]c(=O)n([C@H]2C[C@H](O)[C@@H](CO)O2)cc1F
neuronal differentiation score (ReNCell VM [1]; library: Spectrum): inactive: 0 | dopaminergic neuron differentiation score (ReNCell VM [2]; library: Spectrum): inactive: 0

CC(N)CCCC(C)(C)O (configuration not stated)
neuronal differentiation score (ReNCell VM [1]; library: Spectrum): inactive: 0 | dopaminergic neuron differentiation score (ReNCell VM [2]; library: Spectrum): inactive: 0

CCCCCCCCCCCCCCCCCC(=O)OC(CC(=O)O)C[N+](C)(C)C (racemic) [DL-Stearoylcarnitine chloride]
neuronal differentiation score (ReNCell VM [1]; library: LOPAC): inactive: 0 | dopaminergic neuron differentiation score (ReNCell VM [2]; library: LOPAC): inactive: 0

CCN1CCCC(OC(=O)C(c2ccccc2)c2ccccc2)C1 (configuration not stated)
neuronal differentiation score (ReNCell VM [1]; library: Spectrum): inactive: 0 | dopaminergic neuron differentiation score (ReNCell VM [2]; library: Spectrum): inactive: 0

CC1=CC(=O)NS(=O)(=O)O1
neuronal differentiation score (ReNCell VM [1]; library: Spectrum): inactive: 0 | dopaminergic neuron differentiation score (ReNCell VM [2]; library: Spectrum): inactive: 0

CCCN[C@H]1CCc2nc(N)sc2C1 [Pramipexole]
neuronal differentiation score (ReNCell VM [1]; library: Prestwick): inactive: 0 | dopaminergic neuron differentiation score (ReNCell VM [2]; library: Prestwick): inactive: 0

CC(=O)N[C@@H](CC(C)C)C(=O)O
neuronal differentiation score (ReNCell VM [1]; library: Spectrum): inactive: 0 | dopaminergic neuron differentiation score (ReNCell VM [2]; library: Spectrum): active: 3

O=C1Nc2ccc(Cl)cc2[C@@](C#CC2CC2)(C(F)(F)F)O1 [Efavirenz]
neuronal differentiation score (ReNCell VM [1]; library: Prestwick): inactive: 0 | dopaminergic neuron differentiation score (ReNCell VM [2]; library: Prestwick): inactive: 0

CCOC(=O)[C@H](CCc1ccccc1)N[C@@H](C)C(=O)N1Cc2ccccc2C[C@H]1C(=O)O
neuronal differentiation score (ReNCell VM [1]; library: Spectrum): inactive: 0 | dopaminergic neuron differentiation score (ReNCell VM [2]; library: Spectrum): inactive: 0

COc1cc(C2Oc3cc([C@H]4Oc5cc(O)cc(O)c5C(=O)[C@@H]4O)ccc3OC2CO)ccc1O (some centres not stated)
neuronal differentiation score (ReNCell VM [1]; library: Spectrum): inactive: 0 | dopaminergic neuron differentiation score (ReNCell VM [2]; library: Spectrum): inactive: 0

CNC(=N)NCCC[C@H](N)C(=O)O
neuronal differentiation score (ReNCell VM [1]; library: Spectrum): inactive: 0 | dopaminergic neuron differentiation score (ReNCell VM [2]; library: Spectrum): inactive: 0
